Data: patent US20130280736A1

Experiments:
[1] = biological target: HIF-1αP564R (human); test: immunofluorescence on HEK 293 cells transfected with HIF1α mut P564
[2] = biological target: HIF-1αP402R (human); test: immunofluorescence on HEK 293 cells transfected with HIF1α mut P402
[3] = biological target: HIF-1αP402R (human); test: Western blot of lysates of transfected HEK293 cells, β-actin as loading control
[4] = biological target: HIF-1αP564R (human); test: as above

Measured: binding

B1: monoclonal antibody clone 7D6 (antibody, V domains shown)
VH: EVQLVESGGGLVKPGGSLKLSCAASGFTFSSYAMSWVRQTPEKRLEWVAAISYGGNYTYYPDSVKGRFTVSRDNAKNTLYLQMSSLRSEDTAMYYCARRARAEYYYAMDYWGQGTSVTVSS
VL: DVLMTQTPLSLPVSLGDQASISCKSSQSIVHSNGNTYLEWYLQKPGQPPKVLIYKVSNRFSGVPDRFSGSGSGTDSTLKISRVEAEDLGLYYCFQGSHVPWTFGGGTKLEI
binds: [1] | [2] | [3] | [4]

No constants are given. Whether binding was seen depends on the method and setting. Binding calls can cover weak binding; strength is not graded here.
